# Experimental data from PubChem BioAssay AID1347423 (Functional Genomics Laboratory (NCATS/FGL), 2020).
# In all, about 52,000 sequences went through this assay and about 210 (0.4%) were called active.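 Rule for the calls: active = gene whose silencing raises cell survival under the drug, median off-target-corrected z-score across its silencing RNAs 2 or more; inactive = the rest.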 The list shows a part of the results.
# Assay: Resistance to Poly (ADP-Ribose) Polymerase inhibitor: Gene Identification via Genome-wide siRNA Screen
# Conditions: mouse BRCA2 R2336H ES cells, olaparib, CellTiter-Glo viability; hits give high values
# Method in brief: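 Genome-wide siRNA screen (3 siRNAs/gene, 20 nM) in mouse ES cells carrying hypomorphic BRCA2 R2336H; olaparib 500 nM added 48 h post-transfection, CellTiter-Glo viability 72 h later. Normalized to plate-median negative control; MAD z-scores, gene median, seed-adjusted.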
row,Sequence,z-score
1,GCCACUACUACAUCAAUGUTT against BC012256,inactive: 0.495
2,GGAAGUCCAGGGAUACAUGTT against Erbb2,inactive: -0.898
3,GGACAAUCAGGAAUCAUAUTT against Recql,inactive: -0.882
4,GGAGAAGUAUGGAGAGAUUTT against U2af1l4,inactive: -0.604
5,CACUGAACAGAUCAGAGCATT against 1110013L07Rik,inactive: -1.64
6,CCACAGCAAGAUGUGUAUGTT against Rnf125,inactive: -0.0429
7,GGUGAUUCUGGAUAAAUACTT against Tmprss4,inactive: 0.915
8,GGAAGCGUAUUACGAAAGATT against 2810441A10Rik,inactive: 0.172
9,GGGUAACUGGUUUGUAUGATT against C920025J10,inactive: -0.212
10,GGAAAUGACUUGUGAUGAUTT against Pik3ap1,inactive: 2.55
11,GCAGUUGGGCUCCUAUGAUTT against Mrps16,inactive: -1.29
12,GGCAUGAUGUUCAUGGAUATT against Nup62,inactive: 1.81
13,GCAAUCCUAUGAAGUUAAATT against 1700025J14Rik,inactive: -1.86
14,CCCAAUAACAUCUUAAGAUTT against Lyn,inactive: -0.00574
15,ACUCCUAUGAGCUAGCUGUTT against 2410039E07Rik,inactive: 0.372
16,GGAUCUGAUCCAGACUUCUTT against Ndrl,inactive: -2.16
17,GGGAUAGCUGUCACCUUCUTT against Rad9,inactive: -0.678
18,AACACGGCUCUAGCCAAUCTT against Ypel4,inactive: -0.524
19,GGCAUUUUAGUAAUAAGCATT against Mkln1,inactive: -0.101
20,GGAACGAAUGAAAAGACUUTT against Tpp2,inactive: -0.716
21,GGAAGUUGACUCCAUUUCCTT against Gpr143,inactive: 0.106
22,GGUUACAGUGACACAGCCUTT against Slc16a8,inactive: -0.943

row,Sequence,z-score
1,GGAUUUUAGCUCUGAUUCATT against D130067I03Rik,inactive: -0.692
2,GGAAAAAUUGUGCUCAACUTT against Suv420h1,inactive: 0.92
3,GGAGAUGAACAAGGACCUATT against Apoa1,active: 1.02
4,CCGUGAGGAUUUCAAGCGATT against P2ry6,inactive: -0.516
5,CCACGAGUAGUAAAAAAUATT against AI504432,inactive: -0.651
6,CCUUAGACCUAACAAACAATT against Rab23,inactive: 0.934
7,GCGAAGUCAAGCCUACUUUTT against B3gat1,inactive: 0.318
8,GGUGUAUGAAUCUGUGCUGTT against Cldn5,inactive: -0.461
9,GGUGUGUUAUCGAUUUUACTT against Fut2,inactive: 0.773
10,CGUGCAGAUACCACUUCACTT against Podn,inactive: -1.19
11,GGCUCUUACAUAAACUCUATT against Tecta,inactive: 0.205
12,GGUGGUCACCUAUUCAUGUTT against Daf1,inactive: -0.424
13,GGAUAUUAACUAUGGGUUUTT against Tlr2,inactive: 0.965
14,GGUCCUAAAUUUCUACCAATT against Dnase1l1,inactive: 0.774
15,GGACCCUGACAUCAUUGUGTT against BC020025,inactive: 0.0697
16,GGAACAGGAAUGGUAAUGCTT against 2610033C09Rik,inactive: 0.129
17,GCUGAAUUUUACGAUGAUUTT against 4631426G04Rik,inactive: -1.91
18,GGGAGGUCAAAAACUUCCATT against Coq3,inactive: 0.333
19,GCUUUGACAACCUCUACUCTT against 9130011E15Rik,inactive: 1.32
20,GUCCCAAUACUACUUUUUUTT against V1rc20,inactive: 0.353
21,GCUGGUGACUUGUAAAAGCTT against Meox1,inactive: 0.169
22,GGGUCAGUUCAUAUGCCUCTT against Laptm5,inactive: 1.89

# Some of the entries so far, tab-delimited:
row	Sequence	z-score
1	GCCACUACUACAUCAAUGUTT against BC012256	inactive: 0.495
4	GGAGAAGUAUGGAGAGAUUTT against U2af1l4	inactive: -0.604
5	CACUGAACAGAUCAGAGCATT against 1110013L07Rik	inactive: -1.64
7	GGUGAUUCUGGAUAAAUACTT against Tmprss4	inactive: 0.915
9	GGGUAACUGGUUUGUAUGATT against C920025J10	inactive: -0.212
11	GCAGUUGGGCUCCUAUGAUTT against Mrps16	inactive: -1.29
18	AACACGGCUCUAGCCAAUCTT against Ypel4	inactive: -0.524
19	GGCAUUUUAGUAAUAAGCATT against Mkln1	inactive: -0.101
21	GGAAGUUGACUCCAUUUCCTT against Gpr143	inactive: 0.106
22	GGUUACAGUGACACAGCCUTT against Slc16a8	inactive: -0.943
3	GGAGAUGAACAAGGACCUATT against Apoa1	active: 1.02
9	GGUGUGUUAUCGAUUUUACTT against Fut2	inactive: 0.773
18	GGGAGGUCAAAAACUUCCATT against Coq3	inactive: 0.333
22	GGGUCAGUUCAUAUGCCUCTT against Laptm5	inactive: 1.89

# Next results

row,Sequence,z-score
1,CCCAGCUCACGUAUUUAUUTT against Pgf,inactive: 0.478
2,CCAUUUGAAGAGUAUUCCCTT against Lrrc2,inactive: 0.665
3,GGCCUGGAGAAAAAACUUATT against Sfpq,inactive: 0.181
4,CCUUAGCUAAAUUUACUGGTT against Bche,inactive: 0.718
5,GCAGACAAUUGGUUUGAUUTT against MGC27863,inactive: -0.778
6,CGCAACAGAUAGUAAAUAUTT against 1810047C23Rik,inactive: -2.38
7,GGGUGAAAUACUUCUUUGATT against Cxcl15,inactive: -0.654
8,UGGUGGUGUUUUUUAACUCTT against Gm1705,inactive: 0.124
9,GGCUCUAUCCACCAGUAAUTT against Cyp4a14,inactive: 0.774
10,GGCAAAUAUUCAGUUUGGATT against Scarb2,inactive: -0.695
11,GGAGAGUGAAGUGAAAAGCTT against Dhrs1,inactive: 1.32
12,GCAGAUUGACUUCUCGGCUTT against Akap2,inactive: 0.866
13,GCCAAGUUCAUUGGUGCUGTT against Atp5g1,inactive: 2.04
14,GCAAAUUUACCUCAGUGCUTT against MOR253-5,inactive: 0.322
15,CCAAGACCAUCCAAUUCAUTT against Il6,inactive: 0.47
16,GCGCAUCCUAUUCCAGCACTT against Pctp,inactive: -0.672
17,GGUGAUUAAGAAAGAGGAUTT against Exosc8,inactive: -1.51
18,GGAAAAUGCCAUGAAAAAGTT against C130098D09,inactive: 0.451
19,GGAUGCUACAGGAAGAGAATT against 5730568A12Rik,inactive: -0.316
20,GGUCCUUCGUAGUUGUGGUTT against 5830484A20Rik,inactive: -0.0119
21,GCUCCAUUUCAGUCAUCGATT against Klrc1,inactive: 0.584
22,GGUGAAGUAUUUGACUAUUTT against Mark3,inactive: 0.704
